Values quoted from earlier work in patent US20060183733A1, “Treating microvasculature diseases with acetyl cholinesterase inhibitors” (priority 2005, published 2006).
“Also recorded” adds a separate entry of the source.

Test system: regional blood flow in the brain
Conditions: PET scanning; Alzheimer's patients and normal subjects; cited from earlier work

In the case of `COc1cc2c(cc1OC)C(=O)C(CC1CCN(Cc3ccccc3)CC1)C2` (stereo not shown) [donepizil, 1-benzyl-4->(5,6-dimethoxy-1-indanon)-2-yl methylpiperidine], the “regional blood flow in the brain / CNS structures” value is listed as “Regional blood flow is increased; also recorded: improve blood flow to CNS structures; also recorded: improve regional blood flow in the brain”.
